Data as given in PubChem BioAssay AID1259405 (NCATS, 2018).
Screen: 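Mouse-designed siRNAs used to find CHO productivity engineering targets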 (primary screen). System: Chinese hamster CHO-K1 ovary cells with stable secreted eGFP expression. Reagent: single siRNA against mouse genes, 0.8 pmol siRNA per well (2 µl of 400 nM stock). Timing: 3 days. Read-out: 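Per-well intracellular GFP measured by laser scanning cytometry, plus viability from ATP luminescence, each relative to plate median of non-targeting control wells, in %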. Reading the numbers: GFP, % of control: higher = more GFP per well, higher productivity. Call rule: 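Called active when intracellular GFP, relative to negative control, is at or above 120%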.
The whole screen tested about 50,000 reagents; shown is an unselected part. About 4,000 of them (8%) count as active. 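Mouse siRNA library applied to hamster cells; one well for each siRNA.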 Unmarked entries are inactive. The numbers tell different reagents against one gene apart. Further read-outs or replicates are left out here.

GFP, % of control, by gene and reagent
Plac9 (GeneID 211623): #1 53.1; #2 120 (active); #3 111
Gnaz (GeneID 14687): #1 105; #2 115; #3 73
Astn1 (GeneID 11899): #1 112; #2 63.6; #3 25.4
Cdc6 (GeneID 23834): #1 66.9; #2 89.7; #3 112
Ppil4 (GeneID 67418): #1 101; #2 88.5; #3 37.9
Lin28b (GeneID 380669): #1 95.1; #2 110; #3 58
Spo11 (GeneID 26972): #1 109; #2 108
Cdc26 (GeneID 66440): #1 102; #2 105; #3 89.6
Mkx (GeneID 210719): #1 86.1; #2 85.3
Nsun5 (GeneID 100609): #1 84.8; #2 102; #3 56.8
Mccc2 (GeneID 78038): #1 26; #2 78.3; #3 76.9
Cabcoco1 (GeneID 73287): #1 43.5; #2 83.7; #3 79
Poli (GeneID 26447): #1 155 (active); #2 53.1
1110006O24Rik (GeneID 66123): #1 71.3; #2 41.6; #3 145 (active)
Card19 (GeneID 68480): #1 103; #2 86.2; #3 35.9
Zfp781a (GeneID 211135): #1 93.3; #2 64.1; #3 111
Smim10l2a (GeneID 320237): #1 40.1; #2 57.7; #3 38.9
Oxct2b (GeneID 353371): #1 79.9; #2 67.2; #3 50.6

5 entries already listed, ordered by “GFP, % of control”, highest first.
gene	siRNA no.	GFP, % of control
Oxct2b (GeneID 353371)	1	79.9
Oxct2b (GeneID 353371)	2	67.2
Smim10l2a (GeneID 320237)	2	57.7
Smim10l2a (GeneID 320237)	1	40.1
Smim10l2a (GeneID 320237)	3	38.9

The list goes on.
GFP, % of control, by gene and reagent
Kras (GeneID 16653): #1 105; #2 77.8; #3 62.3
Ckm (GeneID 12715): #1 72
Defb9 (GeneID 246079): #1 79.8; #2 87.5; #3 138 (active)
Kcnq1 (GeneID 16535): #1 82; #2 40.9; #3 61.8
Spout1 (GeneID 227695): #1 68.8; #2 121 (active); #3 73.3
Pnoc (GeneID 18155): #1 97.2; #2 58.8; #3 93
Cabs1 (GeneID 70977): #1 107; #2 109; #3 46.8
Cadps2 (GeneID 320405): #1 33.6; #2 58.5; #3 85.3
Lrrc20 (GeneID 216011): #1 50; #2 78.4; #3 149 (active)
Cx3cl1 (GeneID 20312): #1 76; #2 67.7; #3 80.3
Gng10 (GeneID 14700): #1 118; #2 91.2; #3 27.7
Zdhhc4 (GeneID 72881): #1 63; #2 44.3; #3 60.1
